Results are given in words; binding and its absence hold for the method and conditions named. Some binding calls cover weakened binding; strength is not graded here.
Legend:
[1] = biological target: GAL4 DBD fused LBD of PPARγ (UniProt P04386); assay: mammalian two-hybrid, DU145, 1 uM 15dJ2
[2] = biological target: GAL4 DBD fused LBD of PPARγ (UniProt P04386); assay: mammalian two-hybrid
[3] = biological target: GAL4 DBD fused with C-terminal fragment (aa 595-918) of wild-type AR (human); assay: yeast two-hybrid, nutrition selection plates
[4] = biological target: GAL4 DBD fused with C-terminal fragment (aa 595-918) of wild-type AR (human); assay: yeast two-hybrid

The chains behind the UniProt entries cited, without tags or fusion partners. Where a name states a change or a piece, a line headed by the entry shows the natural chain unless it says otherwise.
UniProt Q13772: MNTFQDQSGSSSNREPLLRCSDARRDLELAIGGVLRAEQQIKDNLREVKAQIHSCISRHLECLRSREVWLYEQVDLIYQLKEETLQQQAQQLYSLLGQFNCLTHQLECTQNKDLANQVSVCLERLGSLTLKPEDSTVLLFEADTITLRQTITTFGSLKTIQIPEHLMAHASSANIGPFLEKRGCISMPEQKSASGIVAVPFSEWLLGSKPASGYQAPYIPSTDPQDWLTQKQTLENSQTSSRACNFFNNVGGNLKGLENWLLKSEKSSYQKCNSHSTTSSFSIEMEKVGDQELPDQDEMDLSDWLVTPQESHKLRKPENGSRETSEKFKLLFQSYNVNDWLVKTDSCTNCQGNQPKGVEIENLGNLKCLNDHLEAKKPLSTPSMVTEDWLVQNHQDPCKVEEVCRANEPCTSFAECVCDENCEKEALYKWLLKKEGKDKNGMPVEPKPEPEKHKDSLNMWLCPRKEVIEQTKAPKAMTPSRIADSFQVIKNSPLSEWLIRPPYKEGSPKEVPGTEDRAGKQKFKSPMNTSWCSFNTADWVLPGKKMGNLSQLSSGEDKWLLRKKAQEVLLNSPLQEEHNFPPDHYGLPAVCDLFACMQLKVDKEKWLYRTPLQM
UniProt O95425: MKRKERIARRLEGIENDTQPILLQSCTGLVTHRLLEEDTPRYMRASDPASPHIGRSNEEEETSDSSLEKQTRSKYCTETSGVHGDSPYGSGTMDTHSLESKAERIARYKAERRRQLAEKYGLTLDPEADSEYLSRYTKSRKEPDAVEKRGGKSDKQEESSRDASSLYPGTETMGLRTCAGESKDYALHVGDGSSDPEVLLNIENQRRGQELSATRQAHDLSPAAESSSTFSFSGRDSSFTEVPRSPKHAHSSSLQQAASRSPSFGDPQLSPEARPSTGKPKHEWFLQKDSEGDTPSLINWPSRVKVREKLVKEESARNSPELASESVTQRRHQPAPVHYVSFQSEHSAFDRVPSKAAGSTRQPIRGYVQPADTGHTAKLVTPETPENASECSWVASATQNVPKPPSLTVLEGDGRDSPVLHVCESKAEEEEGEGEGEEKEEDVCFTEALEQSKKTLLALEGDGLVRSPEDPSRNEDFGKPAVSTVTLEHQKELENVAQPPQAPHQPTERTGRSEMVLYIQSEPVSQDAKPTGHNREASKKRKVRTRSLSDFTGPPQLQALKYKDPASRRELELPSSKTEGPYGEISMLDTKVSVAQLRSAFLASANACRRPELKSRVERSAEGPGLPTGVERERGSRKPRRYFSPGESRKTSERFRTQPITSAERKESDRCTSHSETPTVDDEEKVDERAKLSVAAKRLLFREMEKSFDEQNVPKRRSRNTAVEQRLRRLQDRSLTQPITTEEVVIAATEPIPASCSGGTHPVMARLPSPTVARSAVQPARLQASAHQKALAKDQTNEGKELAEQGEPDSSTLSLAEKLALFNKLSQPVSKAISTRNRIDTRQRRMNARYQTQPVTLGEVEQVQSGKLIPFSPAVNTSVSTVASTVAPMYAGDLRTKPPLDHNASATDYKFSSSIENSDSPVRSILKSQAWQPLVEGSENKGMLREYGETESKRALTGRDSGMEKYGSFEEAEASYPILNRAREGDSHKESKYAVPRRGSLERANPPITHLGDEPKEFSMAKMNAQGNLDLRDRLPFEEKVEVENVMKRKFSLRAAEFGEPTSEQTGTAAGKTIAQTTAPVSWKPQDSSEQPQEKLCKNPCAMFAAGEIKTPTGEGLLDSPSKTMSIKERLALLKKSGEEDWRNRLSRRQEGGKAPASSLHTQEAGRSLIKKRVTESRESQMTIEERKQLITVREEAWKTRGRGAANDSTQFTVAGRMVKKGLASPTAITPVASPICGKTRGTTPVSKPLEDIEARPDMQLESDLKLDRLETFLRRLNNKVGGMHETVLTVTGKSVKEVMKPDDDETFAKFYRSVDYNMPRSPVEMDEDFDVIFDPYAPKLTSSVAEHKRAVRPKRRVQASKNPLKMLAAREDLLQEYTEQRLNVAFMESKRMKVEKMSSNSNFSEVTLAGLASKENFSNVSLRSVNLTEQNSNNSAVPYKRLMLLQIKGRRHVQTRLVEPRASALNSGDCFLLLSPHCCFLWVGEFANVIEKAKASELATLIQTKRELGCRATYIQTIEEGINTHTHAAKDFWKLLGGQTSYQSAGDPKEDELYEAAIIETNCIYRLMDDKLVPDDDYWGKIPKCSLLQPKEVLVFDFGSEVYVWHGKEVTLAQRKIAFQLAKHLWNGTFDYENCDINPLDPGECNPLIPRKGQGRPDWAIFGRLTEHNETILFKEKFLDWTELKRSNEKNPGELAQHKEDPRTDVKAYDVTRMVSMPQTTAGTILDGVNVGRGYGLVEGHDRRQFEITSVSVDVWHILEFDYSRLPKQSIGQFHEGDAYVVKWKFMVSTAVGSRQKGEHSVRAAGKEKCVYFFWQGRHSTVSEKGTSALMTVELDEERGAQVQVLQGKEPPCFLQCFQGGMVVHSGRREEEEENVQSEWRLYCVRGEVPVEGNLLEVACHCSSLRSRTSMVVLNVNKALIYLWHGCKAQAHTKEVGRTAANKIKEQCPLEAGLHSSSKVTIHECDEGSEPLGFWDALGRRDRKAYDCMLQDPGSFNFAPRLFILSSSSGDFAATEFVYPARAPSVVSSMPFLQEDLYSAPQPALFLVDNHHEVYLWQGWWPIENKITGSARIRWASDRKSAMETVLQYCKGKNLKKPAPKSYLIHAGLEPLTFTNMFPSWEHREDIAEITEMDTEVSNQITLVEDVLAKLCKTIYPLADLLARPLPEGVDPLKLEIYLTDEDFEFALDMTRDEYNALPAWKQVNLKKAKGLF

binding [3]	binding [4]	Substance	binding [1]	binding [2]
–	–	VP16 fused wild-type ARA70N (aa 1-401) (from UniProt Q13772 1-401)	binds	binds
binds	binds	pACTII-hSV(558-1788): Gal4 AD fused human supervillin a.a. 558-1788 (from UniProt O95425 984-2210)	–	–
